# Results of single-concentration screens

Chains of the proteins cited; added tags and fusions are not shown. Residues count along the entry.
UniProt P9WFT3, whole entry: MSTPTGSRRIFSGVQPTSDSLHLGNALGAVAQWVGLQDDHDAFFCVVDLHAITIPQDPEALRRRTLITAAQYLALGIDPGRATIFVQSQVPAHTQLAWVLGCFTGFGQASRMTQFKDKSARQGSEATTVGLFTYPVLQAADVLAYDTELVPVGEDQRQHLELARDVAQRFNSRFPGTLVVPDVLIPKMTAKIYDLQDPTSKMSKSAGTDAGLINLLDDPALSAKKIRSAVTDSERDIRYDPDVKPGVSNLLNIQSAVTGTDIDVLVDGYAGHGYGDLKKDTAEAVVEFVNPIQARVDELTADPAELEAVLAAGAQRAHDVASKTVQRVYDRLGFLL
UniProt P9WPC5, whole entry: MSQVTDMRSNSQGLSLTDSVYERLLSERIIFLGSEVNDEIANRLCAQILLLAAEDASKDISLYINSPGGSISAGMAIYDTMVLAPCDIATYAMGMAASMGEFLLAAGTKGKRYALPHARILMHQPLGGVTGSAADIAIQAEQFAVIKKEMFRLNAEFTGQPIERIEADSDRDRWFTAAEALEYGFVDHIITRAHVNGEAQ
UniProt P9WPC3, whole entry partner: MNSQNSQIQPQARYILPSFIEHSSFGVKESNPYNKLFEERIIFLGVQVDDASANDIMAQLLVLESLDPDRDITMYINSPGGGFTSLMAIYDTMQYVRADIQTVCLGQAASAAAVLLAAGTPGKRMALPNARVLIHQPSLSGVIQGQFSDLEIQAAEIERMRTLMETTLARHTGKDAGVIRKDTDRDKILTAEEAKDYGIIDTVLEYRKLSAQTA
UniProt I6X8D2, whole entry: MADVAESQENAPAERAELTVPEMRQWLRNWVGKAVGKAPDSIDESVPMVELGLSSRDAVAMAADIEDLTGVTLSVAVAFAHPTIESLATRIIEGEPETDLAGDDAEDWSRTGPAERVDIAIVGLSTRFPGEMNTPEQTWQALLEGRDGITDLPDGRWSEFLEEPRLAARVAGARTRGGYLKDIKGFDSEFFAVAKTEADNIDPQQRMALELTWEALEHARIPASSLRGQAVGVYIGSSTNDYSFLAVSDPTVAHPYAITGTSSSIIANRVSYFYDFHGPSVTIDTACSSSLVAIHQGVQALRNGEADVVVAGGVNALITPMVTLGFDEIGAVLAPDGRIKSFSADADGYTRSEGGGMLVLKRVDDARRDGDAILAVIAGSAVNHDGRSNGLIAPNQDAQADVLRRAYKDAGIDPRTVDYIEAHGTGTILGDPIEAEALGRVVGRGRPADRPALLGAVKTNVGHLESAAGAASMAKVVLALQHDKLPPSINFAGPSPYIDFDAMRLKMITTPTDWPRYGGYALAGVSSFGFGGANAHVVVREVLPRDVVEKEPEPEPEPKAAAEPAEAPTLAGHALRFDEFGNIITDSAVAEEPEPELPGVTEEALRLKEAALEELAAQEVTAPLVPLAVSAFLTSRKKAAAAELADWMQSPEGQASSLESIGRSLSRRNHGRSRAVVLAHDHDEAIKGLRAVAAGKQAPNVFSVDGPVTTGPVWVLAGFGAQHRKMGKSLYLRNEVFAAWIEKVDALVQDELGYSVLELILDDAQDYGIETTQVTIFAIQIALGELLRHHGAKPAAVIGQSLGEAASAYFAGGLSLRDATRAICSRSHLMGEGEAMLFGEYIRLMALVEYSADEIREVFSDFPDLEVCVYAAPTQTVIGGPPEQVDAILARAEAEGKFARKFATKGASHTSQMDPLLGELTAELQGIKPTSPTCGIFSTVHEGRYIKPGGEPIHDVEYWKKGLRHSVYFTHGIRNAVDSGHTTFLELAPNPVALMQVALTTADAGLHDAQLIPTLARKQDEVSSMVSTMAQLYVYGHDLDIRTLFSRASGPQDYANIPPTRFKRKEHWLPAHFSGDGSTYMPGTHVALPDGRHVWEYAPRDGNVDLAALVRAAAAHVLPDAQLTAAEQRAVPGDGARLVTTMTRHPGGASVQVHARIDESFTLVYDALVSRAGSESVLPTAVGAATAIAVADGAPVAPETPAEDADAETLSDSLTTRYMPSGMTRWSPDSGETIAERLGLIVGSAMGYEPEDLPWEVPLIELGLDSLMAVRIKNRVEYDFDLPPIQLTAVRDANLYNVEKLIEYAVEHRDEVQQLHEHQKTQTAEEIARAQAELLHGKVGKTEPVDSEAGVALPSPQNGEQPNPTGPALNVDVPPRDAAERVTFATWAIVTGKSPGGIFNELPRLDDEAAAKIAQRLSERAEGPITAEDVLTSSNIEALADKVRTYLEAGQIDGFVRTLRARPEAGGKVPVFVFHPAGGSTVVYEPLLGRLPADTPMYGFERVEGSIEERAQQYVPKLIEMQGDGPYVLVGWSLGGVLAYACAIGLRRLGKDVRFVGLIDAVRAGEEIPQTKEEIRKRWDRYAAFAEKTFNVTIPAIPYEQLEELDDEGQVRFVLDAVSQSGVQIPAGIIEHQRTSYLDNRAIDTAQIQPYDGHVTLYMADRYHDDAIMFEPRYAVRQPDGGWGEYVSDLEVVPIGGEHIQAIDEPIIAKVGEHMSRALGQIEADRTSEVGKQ
UniProt Q8IDJ8, 1-583: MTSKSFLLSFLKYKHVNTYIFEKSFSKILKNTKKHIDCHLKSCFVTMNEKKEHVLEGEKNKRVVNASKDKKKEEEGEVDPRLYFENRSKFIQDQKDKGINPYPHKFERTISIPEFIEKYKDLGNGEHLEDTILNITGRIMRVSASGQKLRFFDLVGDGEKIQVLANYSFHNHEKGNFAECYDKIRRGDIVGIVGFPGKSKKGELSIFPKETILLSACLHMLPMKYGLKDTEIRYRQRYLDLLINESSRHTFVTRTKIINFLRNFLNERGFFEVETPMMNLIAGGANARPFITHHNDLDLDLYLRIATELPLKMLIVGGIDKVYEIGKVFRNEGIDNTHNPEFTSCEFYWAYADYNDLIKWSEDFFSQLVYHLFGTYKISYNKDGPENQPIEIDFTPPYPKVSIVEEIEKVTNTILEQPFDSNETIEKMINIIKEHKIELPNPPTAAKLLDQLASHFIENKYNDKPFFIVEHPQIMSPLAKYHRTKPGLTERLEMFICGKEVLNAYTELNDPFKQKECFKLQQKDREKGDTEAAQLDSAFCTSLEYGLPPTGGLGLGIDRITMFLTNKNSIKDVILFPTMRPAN

MtTrpRS: 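Tryptophan-tRNA ligase, Mycobacterium tuberculosis (UniProt P9WFT3). Enzyme assay of tryptophanyl-tRNA synthetase; the read-out is not stated. Compounds at 10 µM. Direction is not recorded; retested compounds ran higher, which suggests that high means inhibition. Size under these conditions: about 65,000 compounds, about 64 of them at 50% or above in at least one test.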
ClpP1P2: 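ClpP1P2, Mycobacterium tuberculosis (UniProt P9WPC5 and UniProt P9WPC3). Protease assay of ClpP1P2, read by the AMC dye that it sets free. Concentration: 50 µM. Direction is inferred from only a few compounds that gave an IC50; most scored high, so higher reads as stronger inhibition. Most other retested compounds had strongly negative values. Size under these conditions: about 69,000 compounds, about 10 of them at 50% or above in at least one test.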
Pks13 thioesterase: 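Enzyme assay of the thioesterase domain of polyketide synthase 13; the read-out is not stated. Target: Polyketide synthase Pks13, Mycobacterium tuberculosis (UniProt I6X8D2). Concentration: 30 µM. Higher reads as stronger inhibition (inferred from which compounds were picked for retests). About 67,000 compounds were tested under these conditions; 0.46% (about 300) showed 50% or more at least once.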
PfKRS1: 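Enzyme assay of the cytosolic lysyl-tRNA synthetase in 384-well plates, read by luminescence. Target: Lysine-tRNA ligase, Plasmodium falciparum 3D7 (UniProt Q8IDJ8). Tested at 30 µM. Higher reads as stronger inhibition, judged from the few compounds that gave an IC50. Size under these conditions: about 69,000 compounds, about 49 of them at 50% or above in at least one test.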

Values are the deposited “Percent Effect”, in %. The controls that fix the scale are not given in the record; negative values are as filed. Compounds were drawn at random from those tested, without regard to their results. A dash means the value is not listed here; it may have been measured.

structure | MtTrpRS | ClpP1P2 | Pks13 thioesterase | PfKRS1
N#Cc1ccnc(N2CCC(NCCN3CCOCC3)CC2)c1 | 0.6623% | -12.24% | 0.7268% | -0.3485%
c1cnnc(NCC2CN(Cc3cccc4c3OCCO4)CCO2)c1 (stereo unspecified) | -2.958% | 7.472% | 29.12% | -0.7304%
c1ccc2oc(CCCN3CCOC(Cn4cncn4)C3)nc2c1 (stereo unspecified) | 8.025% | -13.14% | -12.65% | -0.7315%
O=C1COc2cc(C(=O)NS(=O)(=O)c3ccccc3F)ccc2N1 | -2.242% | -1.291% | -12.24% | -1.077%
CC(Cn1cncn1)NCc1n[nH]c2c1CCCCC2 (stereo unspecified) | 1.568% | -1.101% | 13.79% | 1.718%
COCC(=O)N1CCC2(CCC2N(C)Cc2ccco2)CC1 (stereo unspecified) | -3.153% | -12.28% | -33.76% | 3.671%
CC(C)(C)OC(=O)NC(C)(C)c1noc(CN2CCCCC2)n1 | -3.02% | 2.609% | -4.992% | -0.2447%
Cc1nccc(C2(C)CCCNC2)n1 (stereo unspecified) | 5.548% | -9.554% | -12.64% | -3.834%
CC(C)C(=O)NC1COC2(CCN(C(=O)c3cccnc3)CC2)C1 (stereo unspecified) | 11.08% | 2.575% | -21.36% | 3.097%
N#Cc1cccnc1N1CCCC(CO)(Cc2cccc(Cl)c2)C1 (stereo unspecified) | 6.002% | 7.344% | 96.75% | 3.004%
CC(C)n1nc2c(cc1=O)CN(Cc1ccc(-n3cccn3)cc1)CC2 | -3.273% | 0.6903% | -11% | 5.57%
CCCS(=O)(=O)N1CC[C@H]2OCC[C@@]2(c2nnc(C)o2)C1 | 14.61% | 3.093% | 4.879% | -4.723%
COc1ccc(C(C)NCc2ccsc2)cc1Cn1cccn1 (stereo unspecified) | -4.152% | -11.9% | -18.66% | 6.878%
CCc1nc(Cn2c(=O)n(C)c3ccccc32)no1 | 5.774% | -5.653% | -9.924% | 4.228%
Cc1cnc(CN(C)C2CCN(CC(=O)Nc3c(C)n[nH]c3C)C2)o1 (stereo unspecified) | -0.236% | 9.683% | -5.657% | 11.53%
CC1CN(C)CCN1C(=O)COc1cccc(Oc2ccccn2)c1 (stereo unspecified) | -1.929% | -9.476% | -1.926% | -5.887%
O=C(Cc1cccnc1)N1C[C@@H]2CC[C@H](C1)N(Cc1ccccc1)C2=O | -6.245% | -9.687% | -10.78% | 1.479%
CCN1CCN(CC(O)c2ccc(Br)cc2)CC1 (stereo unspecified) | 0.5623% | 4.957% | -27.18% | 4.203%
CC(=O)N(C)Cc1ncn2c1CN(C(=O)C1CCCO1)CCC2 (stereo unspecified) | - | 2.53% | -12.31% | 0.963%
COCC(=O)NCc1ccc(-c2ccccc2C(=O)O)cn1 | -5.28% | -19.1% | -1.311% | 0.439%
Cc1cccc(S(=O)(=O)N2CCCC3(CCCN3S(C)(=O)=O)C2)c1 (stereo unspecified) | -0.8167% | 13.62% | -19.25% | 1.806%
O=C(C1CCC1)N1CC[C@H](O)[C@@H]1Cc1cccnc1 | - | -5.162% | -4.931% | 3.422%
Cc1c(C(=O)N2CCCN(S(C)(=O)=O)CC2)cnn1C | -0.6056% | 1.128% | -4.985% | -0.6656%
Cc1ccc(C(=O)NCC2CCN(Cc3ccccc3C#N)C2)cn1 (stereo unspecified) | 1.655% | -15.82% | 6.745% | 1.919%
Cc1ccc(OCCN2CCCC(c3cc(C(N)=O)[nH]n3)C2)cc1 (stereo unspecified) | -8.284% | -14.3% | -15.39% | -0.9993%
Cc1csc(N2CCN(C(=O)NCCNc3ncccn3)CC2)n1 | -2.825% | -30.99% | -4.102% | -0.6422%
O=C(C(CNCc1ccsc1)c1ccccc1)N1CCOCC1 (stereo unspecified) | 2.568% | -10.65% | -23.57% | 2.473%
CCc1csc(C2CCCN(C(=O)c3cnn(CC)c3)C2)n1 (stereo unspecified) | -6.674% | 2.386% | -9.592% | 2.147%
Cc1cc(C)c(CNC(=O)N2CCCC2c2ccccc2)c(=O)[nH]1 (stereo unspecified) | 1.657% | 3.853% | -7.719% | 1.089%
CCC[C@@H]1CN(C(=O)c2ccccc2C(C)=O)C[C@H]1N(C)C | 1.475% | 7.925% | -9.666% | 1.034%
COCCCNC(=O)CN1CCC(N2CCN(C)C2=O)CC1 | -0.8023% | -11.84% | -4.658% | 0.2105%
CC(=O)NCc1nnc2n1CCN(c1ncnc3c1CCC3)CC2 | 6.727% | 5.888% | -22.37% | -0.2316%
COCCOc1cccc(C(=O)N2CCCC(n3ccnc3)C2)c1 (stereo unspecified) | -8.96% | -9.587% | -11.59% | 3.997%
COCCN1CCCC(c2nccnc2Nc2nc(C)cs2)C1 (stereo unspecified) | - | 1.01% | 16.84% | 3.889%
Cc1c(C)n2c(SCC(=O)N3CCOCC3)nnc2[nH]c1=O | -0.4167% | 16.74% | -17.21% | 6.803%
COc1ccc(Cl)cc1-c1nc(N)nc(N)n1 | -0.08157% | -7.006% | -16.2% | -0.3658%
CC(SCc1cc(Br)cc2cccnc12)C(N)=O (stereo unspecified) | 2.808% | -0.5536% | -18.12% | 2.975%
COc1cccc(OC)c1CNC(Cc1ccsc1)c1ccc(C)cn1 (stereo unspecified) | -1.019% | -40.15% | -97.7% | 1.685%
O=C(c1cnc(COc2ccccc2)nc1O)N1CCOCC1 | -3.791% | -5.281% | -10.96% | 3.178%
CCCN1CCC2(CC1)CN(C(=O)c1cccnc1)c1ccc(F)cc12 | - | -9.398% | -2.655% | 2.555%
CCCS(=O)(=O)NC(=O)c1cc(C)n(-c2ccccc2)n1 | 4.845% | -2.568% | 32.04% | 0.1472%
c1cc2c(cc1-c1noc3c1CN(C1CCSCC1)CC3)OCO2 | -2.564% | -11.66% | -13.13% | -2.659%

2 of the entries, repeated:

structure,MtTrpRS,ClpP1P2,Pks13 thioesterase,PfKRS1
CC(Cn1cncn1)NCc1n[nH]c2c1CCCCC2 (stereo unspecified),1.568%,-1.101%,13.79%,1.718%
CCN1CCN(CC(O)c2ccc(Br)cc2)CC1 (stereo unspecified),0.5623%,4.957%,-27.18%,4.203%

Measurements from “University of Dundee, Small-Polar-MMV Screening Library” (2021), ChEMBL document CHEMBL3988442.